Experimental data reported in the supplement of paper PMC10849652.
The list shows a part of the results.

By UniProt entry, the sequences of proteins in these tests, tags left out. Where a name states a change or a piece, a line headed by the entry shows the natural chain unless it says otherwise.
UniProt Q9BRK3: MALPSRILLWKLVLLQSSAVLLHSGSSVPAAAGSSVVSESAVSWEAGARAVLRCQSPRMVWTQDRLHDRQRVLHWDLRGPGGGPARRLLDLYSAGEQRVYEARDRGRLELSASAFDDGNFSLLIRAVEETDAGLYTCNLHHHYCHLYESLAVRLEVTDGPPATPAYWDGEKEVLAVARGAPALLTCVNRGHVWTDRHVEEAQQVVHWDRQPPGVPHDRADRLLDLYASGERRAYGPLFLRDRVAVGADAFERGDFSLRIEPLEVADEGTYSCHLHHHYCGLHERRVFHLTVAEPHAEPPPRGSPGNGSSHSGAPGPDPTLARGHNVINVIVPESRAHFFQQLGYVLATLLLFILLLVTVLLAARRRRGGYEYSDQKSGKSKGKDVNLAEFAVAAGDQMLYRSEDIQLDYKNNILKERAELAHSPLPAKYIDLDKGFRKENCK
UniProt P26038, whole entry, looked up: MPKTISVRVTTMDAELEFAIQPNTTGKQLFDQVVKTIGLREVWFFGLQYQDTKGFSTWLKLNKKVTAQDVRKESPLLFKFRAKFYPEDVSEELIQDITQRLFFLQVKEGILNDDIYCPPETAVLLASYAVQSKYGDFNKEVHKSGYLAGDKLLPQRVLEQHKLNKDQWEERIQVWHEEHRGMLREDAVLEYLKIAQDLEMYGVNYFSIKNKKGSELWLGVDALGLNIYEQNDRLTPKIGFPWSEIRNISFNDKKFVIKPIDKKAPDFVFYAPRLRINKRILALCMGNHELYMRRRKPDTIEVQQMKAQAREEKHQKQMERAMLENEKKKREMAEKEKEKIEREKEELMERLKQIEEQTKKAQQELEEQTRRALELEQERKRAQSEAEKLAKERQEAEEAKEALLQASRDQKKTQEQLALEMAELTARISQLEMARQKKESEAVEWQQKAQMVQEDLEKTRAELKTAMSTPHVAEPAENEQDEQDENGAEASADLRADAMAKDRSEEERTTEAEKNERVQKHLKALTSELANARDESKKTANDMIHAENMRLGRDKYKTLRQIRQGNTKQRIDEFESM
UniProt Q96E29: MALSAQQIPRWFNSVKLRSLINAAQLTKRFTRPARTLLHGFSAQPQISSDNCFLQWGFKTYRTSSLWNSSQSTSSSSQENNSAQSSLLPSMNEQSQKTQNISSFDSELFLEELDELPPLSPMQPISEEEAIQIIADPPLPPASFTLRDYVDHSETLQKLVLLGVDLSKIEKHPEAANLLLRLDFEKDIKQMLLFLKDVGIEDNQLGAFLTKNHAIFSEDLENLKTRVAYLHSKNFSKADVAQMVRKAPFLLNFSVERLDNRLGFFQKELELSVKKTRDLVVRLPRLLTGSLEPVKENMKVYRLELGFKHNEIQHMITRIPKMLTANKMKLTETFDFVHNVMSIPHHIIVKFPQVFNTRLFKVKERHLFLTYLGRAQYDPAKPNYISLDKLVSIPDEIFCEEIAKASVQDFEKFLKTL
UniProt P03928: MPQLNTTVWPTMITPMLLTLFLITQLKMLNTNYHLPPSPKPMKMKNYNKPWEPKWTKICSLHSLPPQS
UniProt Q9UGC7: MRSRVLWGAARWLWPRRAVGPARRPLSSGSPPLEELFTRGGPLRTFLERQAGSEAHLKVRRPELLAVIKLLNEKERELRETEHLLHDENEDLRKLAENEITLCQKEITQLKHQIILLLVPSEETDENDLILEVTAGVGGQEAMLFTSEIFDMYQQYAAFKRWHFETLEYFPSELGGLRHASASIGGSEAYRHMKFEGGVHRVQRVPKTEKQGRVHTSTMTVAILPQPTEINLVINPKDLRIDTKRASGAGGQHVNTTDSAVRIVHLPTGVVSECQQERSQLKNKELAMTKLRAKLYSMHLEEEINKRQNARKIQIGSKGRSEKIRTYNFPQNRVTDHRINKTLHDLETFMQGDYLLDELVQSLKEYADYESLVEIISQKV
UniProt Q68DK7: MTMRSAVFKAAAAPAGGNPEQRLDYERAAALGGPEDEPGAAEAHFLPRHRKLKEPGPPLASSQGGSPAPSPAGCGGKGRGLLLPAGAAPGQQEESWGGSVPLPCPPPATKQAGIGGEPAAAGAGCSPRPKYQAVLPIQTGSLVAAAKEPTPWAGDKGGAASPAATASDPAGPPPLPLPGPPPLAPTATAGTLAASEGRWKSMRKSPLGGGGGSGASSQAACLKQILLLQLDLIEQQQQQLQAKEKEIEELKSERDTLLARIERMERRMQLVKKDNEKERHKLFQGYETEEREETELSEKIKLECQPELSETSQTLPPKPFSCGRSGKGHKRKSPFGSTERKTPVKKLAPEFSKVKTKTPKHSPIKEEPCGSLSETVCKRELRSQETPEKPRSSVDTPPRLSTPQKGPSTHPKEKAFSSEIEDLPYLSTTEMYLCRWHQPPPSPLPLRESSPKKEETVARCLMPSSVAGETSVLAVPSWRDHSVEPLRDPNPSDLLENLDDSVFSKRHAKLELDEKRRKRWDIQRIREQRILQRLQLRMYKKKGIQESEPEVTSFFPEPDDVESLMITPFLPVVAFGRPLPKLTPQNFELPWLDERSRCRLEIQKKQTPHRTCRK
UniProt P03905, whole entry, looked up: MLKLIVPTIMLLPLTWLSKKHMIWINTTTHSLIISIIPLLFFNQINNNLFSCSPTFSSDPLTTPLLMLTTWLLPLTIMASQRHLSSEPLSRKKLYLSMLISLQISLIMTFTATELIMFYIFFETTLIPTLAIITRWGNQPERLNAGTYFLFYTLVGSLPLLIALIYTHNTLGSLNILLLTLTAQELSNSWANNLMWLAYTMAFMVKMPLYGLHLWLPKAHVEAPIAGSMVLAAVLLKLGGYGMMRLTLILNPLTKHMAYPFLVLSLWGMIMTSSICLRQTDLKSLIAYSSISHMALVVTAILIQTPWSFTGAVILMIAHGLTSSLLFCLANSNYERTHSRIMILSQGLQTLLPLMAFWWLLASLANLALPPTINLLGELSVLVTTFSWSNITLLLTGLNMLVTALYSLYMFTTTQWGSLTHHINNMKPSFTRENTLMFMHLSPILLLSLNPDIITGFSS
UniProt Q96H55, whole entry, looked up: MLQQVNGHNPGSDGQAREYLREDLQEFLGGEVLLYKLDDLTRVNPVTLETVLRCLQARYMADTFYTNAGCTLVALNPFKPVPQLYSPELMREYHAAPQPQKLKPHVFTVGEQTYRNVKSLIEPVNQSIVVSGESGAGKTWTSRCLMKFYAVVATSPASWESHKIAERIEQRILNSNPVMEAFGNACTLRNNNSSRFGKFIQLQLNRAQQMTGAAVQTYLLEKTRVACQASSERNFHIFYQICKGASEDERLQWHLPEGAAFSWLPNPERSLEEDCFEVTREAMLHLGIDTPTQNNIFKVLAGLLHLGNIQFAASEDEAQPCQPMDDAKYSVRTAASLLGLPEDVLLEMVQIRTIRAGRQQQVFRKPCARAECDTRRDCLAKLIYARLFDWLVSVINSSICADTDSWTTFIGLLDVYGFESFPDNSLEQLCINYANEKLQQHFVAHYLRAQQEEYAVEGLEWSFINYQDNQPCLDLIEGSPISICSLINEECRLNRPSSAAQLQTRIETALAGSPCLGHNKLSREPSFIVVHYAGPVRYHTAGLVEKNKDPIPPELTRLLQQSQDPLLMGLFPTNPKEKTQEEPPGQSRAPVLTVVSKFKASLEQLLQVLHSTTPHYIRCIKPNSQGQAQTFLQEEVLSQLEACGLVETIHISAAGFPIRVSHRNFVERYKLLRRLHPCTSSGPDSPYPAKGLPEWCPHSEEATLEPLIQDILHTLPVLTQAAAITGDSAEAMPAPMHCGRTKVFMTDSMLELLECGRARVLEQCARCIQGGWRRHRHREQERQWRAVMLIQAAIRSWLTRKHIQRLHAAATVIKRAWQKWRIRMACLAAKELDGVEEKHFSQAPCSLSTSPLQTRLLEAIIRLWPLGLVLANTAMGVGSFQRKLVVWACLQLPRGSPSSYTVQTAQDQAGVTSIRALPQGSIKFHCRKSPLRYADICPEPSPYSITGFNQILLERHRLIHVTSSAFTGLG
UniProt Q96E11: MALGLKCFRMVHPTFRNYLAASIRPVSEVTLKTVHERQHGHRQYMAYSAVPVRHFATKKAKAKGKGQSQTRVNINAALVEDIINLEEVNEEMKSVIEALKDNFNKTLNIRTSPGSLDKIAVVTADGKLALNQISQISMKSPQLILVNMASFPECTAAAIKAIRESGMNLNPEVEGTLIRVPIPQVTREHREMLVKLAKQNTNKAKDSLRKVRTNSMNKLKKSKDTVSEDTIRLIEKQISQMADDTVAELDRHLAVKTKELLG
UniProt Q9H2K0, whole entry, looked up: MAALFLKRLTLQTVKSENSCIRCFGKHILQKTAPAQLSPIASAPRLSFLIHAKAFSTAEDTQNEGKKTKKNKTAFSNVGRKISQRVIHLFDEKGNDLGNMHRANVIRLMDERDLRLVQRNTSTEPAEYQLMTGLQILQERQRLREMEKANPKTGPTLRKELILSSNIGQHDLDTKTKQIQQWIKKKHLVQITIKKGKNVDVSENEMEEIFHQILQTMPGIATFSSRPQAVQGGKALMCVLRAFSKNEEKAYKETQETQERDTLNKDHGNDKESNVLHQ
UniProt P82909: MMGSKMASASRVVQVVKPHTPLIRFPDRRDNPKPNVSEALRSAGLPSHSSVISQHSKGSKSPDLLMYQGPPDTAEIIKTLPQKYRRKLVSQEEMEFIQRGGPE
UniProt Q7Z6M4: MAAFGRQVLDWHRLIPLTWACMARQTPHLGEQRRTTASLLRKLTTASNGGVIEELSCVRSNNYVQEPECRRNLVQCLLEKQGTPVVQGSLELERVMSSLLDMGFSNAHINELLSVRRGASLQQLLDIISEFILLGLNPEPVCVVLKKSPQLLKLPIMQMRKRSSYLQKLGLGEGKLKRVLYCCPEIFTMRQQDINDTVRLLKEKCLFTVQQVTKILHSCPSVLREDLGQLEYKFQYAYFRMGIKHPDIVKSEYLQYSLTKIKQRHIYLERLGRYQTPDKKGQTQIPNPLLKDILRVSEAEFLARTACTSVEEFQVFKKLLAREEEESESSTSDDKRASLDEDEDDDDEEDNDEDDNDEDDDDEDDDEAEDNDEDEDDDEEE
UniProt Q2M296: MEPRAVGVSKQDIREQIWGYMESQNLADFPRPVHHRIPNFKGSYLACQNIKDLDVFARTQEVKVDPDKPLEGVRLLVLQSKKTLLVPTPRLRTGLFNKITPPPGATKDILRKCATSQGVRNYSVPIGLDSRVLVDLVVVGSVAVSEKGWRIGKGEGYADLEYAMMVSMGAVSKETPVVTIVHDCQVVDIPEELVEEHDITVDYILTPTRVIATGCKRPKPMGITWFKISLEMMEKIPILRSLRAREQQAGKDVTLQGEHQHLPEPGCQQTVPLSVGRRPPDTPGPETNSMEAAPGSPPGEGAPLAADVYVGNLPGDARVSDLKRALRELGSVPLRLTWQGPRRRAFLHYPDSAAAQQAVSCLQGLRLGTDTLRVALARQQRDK
UniProt O43795: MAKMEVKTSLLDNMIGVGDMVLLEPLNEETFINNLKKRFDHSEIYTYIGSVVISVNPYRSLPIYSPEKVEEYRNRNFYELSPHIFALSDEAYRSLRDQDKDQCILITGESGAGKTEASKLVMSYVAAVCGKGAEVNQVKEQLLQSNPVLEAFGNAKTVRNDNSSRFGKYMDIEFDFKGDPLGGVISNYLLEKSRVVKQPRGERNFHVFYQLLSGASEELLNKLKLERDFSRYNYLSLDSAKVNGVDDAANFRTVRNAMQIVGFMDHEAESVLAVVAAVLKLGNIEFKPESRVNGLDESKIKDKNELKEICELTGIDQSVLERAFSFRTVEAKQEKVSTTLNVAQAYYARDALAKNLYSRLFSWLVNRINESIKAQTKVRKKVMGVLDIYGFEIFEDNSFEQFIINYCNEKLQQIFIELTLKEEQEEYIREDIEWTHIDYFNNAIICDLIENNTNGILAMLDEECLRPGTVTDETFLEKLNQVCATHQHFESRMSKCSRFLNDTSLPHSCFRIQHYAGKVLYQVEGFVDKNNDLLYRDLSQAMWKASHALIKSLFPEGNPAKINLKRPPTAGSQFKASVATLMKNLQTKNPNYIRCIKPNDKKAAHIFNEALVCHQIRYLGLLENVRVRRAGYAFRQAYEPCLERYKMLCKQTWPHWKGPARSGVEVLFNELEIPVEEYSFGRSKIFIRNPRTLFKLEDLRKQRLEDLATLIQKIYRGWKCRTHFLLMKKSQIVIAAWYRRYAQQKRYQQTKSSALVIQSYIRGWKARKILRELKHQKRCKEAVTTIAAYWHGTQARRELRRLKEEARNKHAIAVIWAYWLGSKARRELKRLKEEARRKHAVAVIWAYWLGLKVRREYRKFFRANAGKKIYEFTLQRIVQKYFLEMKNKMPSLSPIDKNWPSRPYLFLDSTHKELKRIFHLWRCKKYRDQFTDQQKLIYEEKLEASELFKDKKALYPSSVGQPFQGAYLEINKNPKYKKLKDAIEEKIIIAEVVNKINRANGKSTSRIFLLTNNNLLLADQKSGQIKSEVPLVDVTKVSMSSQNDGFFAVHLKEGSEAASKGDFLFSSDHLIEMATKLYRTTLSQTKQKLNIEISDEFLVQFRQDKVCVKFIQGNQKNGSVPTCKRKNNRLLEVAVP

compound: C1=CC=C(C=C1)[C@H](COC2=CC3=C(C=C2)NC(=O)N3)NC(=O)C4=CC=CN(C4=O)CC5=CC(=C(C=C5)F)F; assay: log2 fold change, soluble protein after heating vs DMSO (PISA); higher = thermal stabilisation; K562 cells, 10 uM, 30 min; active = over 0.2 and 3.5 SD of the protein, either way, in both replicates (recomputed)
Procedure, shortened: (§1)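 Thermal stability values are relative to control samples and come from duplicates. They are expressed as log2 fold changes. For measurement, K562 cells (2×10^6 cells/mL) received 10 μM compound for 30 min, and aliquots were heated for 3 min over 48°C-58°C, pooled, and extracted at 4°C in PBS with 0.5% NP-40. Soluble protein, the supernatant after 21,000xg for 90 min, was quantified by TMTpro 16plex LC-MS/MS with equalised channel sums.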

Target | log2 fold change
MXRA8 isoform 2 (UniProt Q9BRK3) | inactive: -0.025
MSN (UniProt P26038) | inactive: -0.015
MYD88 isoform 6 (UniProt Q99836) | inactive: 0.275
MTERF3 (UniProt Q96E29) | inactive: 0.055
MT-ATP8 (UniProt P03928) | inactive: -0.08
MRPL9 (UniProt Q9BYD2) | inactive: 0.077
MTRF1L (UniProt Q9UGC7) | inactive: 0.05
MTHFD1L (UniProt B7ZM99) | inactive: 0.009
MTCH2 (UniProt E9PIE4) | inactive: -0.071
MYH3 (UniProt P11055) | inactive: 0.16
MSL1 (UniProt Q68DK7) | inactive: 0.083
MYBBP1A isoform 2 (UniProt Q9BQG0) | inactive: -0.036
MT-ND4 (UniProt P03905) | inactive: -0.124
MYL3 (UniProt P08590) | inactive: -0.024
MYO19 (UniProt Q96H55) | inactive: -0.07
MRPS11 (UniProt P82912) | inactive: 0.044
MYO18B isoform 3 (UniProt Q8IUG5) | inactive: -0.005
MRPL57 (UniProt Q9BQC6) | inactive: 0.05
MVB12A (UniProt Q96EY5) | inactive: -0.022
MYO9A isoform 4 (UniProt B2RTY4) | inactive: 0.181
MTURN (UniProt Q8N3F0) | inactive: -0.01
MRRF (UniProt Q96E11) | inactive: -0.028
MTIF3 (UniProt Q9H2K0) | inactive: -0.037
MRPS23 (UniProt Q9Y3D9) | inactive: -0.027
MRPS36 (UniProt P82909) | inactive: -0.043

compound: CC1=C(SC2=C1C(=N[C@H](C3=NN=C(N32)C)CC(=O)N)C4=CC=C(C=C4)Cl)C; assay: as above
Procedure, shortened: as §1

Target | log2 fold change
MTERF4 (UniProt Q7Z6M4) | inactive: 0.014
MXRA8 isoform 2 (UniProt Q9BRK3) | inactive: 0.002
MTO1 isoform 6 (UniProt Q9Y2Z2) | inactive: 0.06
MSN (UniProt P26038) | inactive: 0.032
MRPL9 (UniProt Q9BYD2) | inactive: -0.058
MTRF1L (UniProt Q9UGC7) | inactive: 0.075
MTHFD1L (UniProt B7ZM99) | inactive: 0.166
MYH3 (UniProt P11055) | inactive: -0.026
MT-CO3 (UniProt P00414) | inactive: 0.093
MTHFSD (UniProt Q2M296) | inactive: -0.136
MYBBP1A isoform 2 (UniProt Q9BQG0) | inactive: -0.309
MT-ND4 (UniProt P03905) | inactive: -0.017
MYL3 (UniProt P08590) | inactive: 0.037
MYO19 (UniProt Q96H55) | inactive: 0.016
MRPS11 (UniProt P82912) | inactive: -0.104
MTHFD2L (UniProt Q9H903) | inactive: -0.198
MYH6 (UniProt P13533) | inactive: 0.002
MRRF (UniProt Q96E11) | inactive: 0.035
MTIF3 (UniProt Q9H2K0) | inactive: -0.116
MRPS23 (UniProt Q9Y3D9) | inactive: 0.007
MRPS36 (UniProt P82909) | inactive: -0.007

compound: CC1=C2C(=CC=C1)N=C(N(C2=O)C3=CC=CC=C3C)CN4C=NC5=C(N=CN=C54)N; assay: as above
Procedure, shortened: as §1

Target | log2 fold change
MTSS1 isoform 5 (UniProt O43312) | inactive: -0.023
MXRA8 isoform 2 (UniProt Q9BRK3) | inactive: -0.352
MTO1 isoform 6 (UniProt Q9Y2Z2) | inactive: 0.064
MSN (UniProt P26038) | inactive: -0.019
MYD88 isoform 6 (UniProt Q99836) | inactive: 0.079
MRPL9 (UniProt Q9BYD2) | inactive: -0.082
MTRF1L (UniProt Q9UGC7) | inactive: -0.009
MSANTD2 (UniProt Q6P1R3) | inactive: 0.06
MTHFD1L (UniProt B7ZM99) | inactive: 0.257
MYO1B (UniProt O43795) | inactive: -0.011
MTCH2 (UniProt E9PIE4) | inactive: 0.013
MT-CO3 (UniProt P00414) | inactive: 0.347
MSL1 (UniProt Q68DK7) | inactive: 0.17
MT-ND4 (UniProt P03905) | inactive: -0.045
MYO19 (UniProt Q96H55) | inactive: 0.146
MRPS11 (UniProt P82912) | inactive: -0.015
MRPL57 (UniProt Q9BQC6) | inactive: -0.07
MVB12A (UniProt Q96EY5) | inactive: 0.265
MTHFD2L (UniProt Q9H903) | inactive: 0.053
MYO9A isoform 4 (UniProt B2RTY4) | inactive: 0.048
MTURN (UniProt Q8N3F0) | inactive: -0.198
MRRF (UniProt Q96E11) | inactive: 0.014
MTFMT (UniProt Q96DP5) | inactive: 0.004
MTIF3 (UniProt Q9H2K0) | inactive: -0.091
MRPS23 (UniProt Q9Y3D9) | inactive: 0.016
MRPS36 (UniProt P82909) | inactive: -0.077
